Reference: the supplement of paper PMC10849652
This is one part of the list. Residues, ends and D or L forms follow the SMILES beside them. *: point of attachment. Cbz = O=C(OCc1ccccc1)*

Chains of the proteins cited; added tags and fusions are not shown. Lines headed by an entry give the natural chain unless they say otherwise; changes in a name come on top.
UniProt Q9P021, whole entry, looked up: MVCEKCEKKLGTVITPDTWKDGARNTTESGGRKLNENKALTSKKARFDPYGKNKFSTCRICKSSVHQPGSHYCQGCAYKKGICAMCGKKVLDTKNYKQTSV
UniProt Q9NX08, whole entry, looked up: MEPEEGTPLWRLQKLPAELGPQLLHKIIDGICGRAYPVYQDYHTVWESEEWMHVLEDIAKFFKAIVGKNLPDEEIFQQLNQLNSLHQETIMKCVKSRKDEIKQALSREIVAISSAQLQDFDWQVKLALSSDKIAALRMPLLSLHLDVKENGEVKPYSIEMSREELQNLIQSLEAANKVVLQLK
UniProt P53618: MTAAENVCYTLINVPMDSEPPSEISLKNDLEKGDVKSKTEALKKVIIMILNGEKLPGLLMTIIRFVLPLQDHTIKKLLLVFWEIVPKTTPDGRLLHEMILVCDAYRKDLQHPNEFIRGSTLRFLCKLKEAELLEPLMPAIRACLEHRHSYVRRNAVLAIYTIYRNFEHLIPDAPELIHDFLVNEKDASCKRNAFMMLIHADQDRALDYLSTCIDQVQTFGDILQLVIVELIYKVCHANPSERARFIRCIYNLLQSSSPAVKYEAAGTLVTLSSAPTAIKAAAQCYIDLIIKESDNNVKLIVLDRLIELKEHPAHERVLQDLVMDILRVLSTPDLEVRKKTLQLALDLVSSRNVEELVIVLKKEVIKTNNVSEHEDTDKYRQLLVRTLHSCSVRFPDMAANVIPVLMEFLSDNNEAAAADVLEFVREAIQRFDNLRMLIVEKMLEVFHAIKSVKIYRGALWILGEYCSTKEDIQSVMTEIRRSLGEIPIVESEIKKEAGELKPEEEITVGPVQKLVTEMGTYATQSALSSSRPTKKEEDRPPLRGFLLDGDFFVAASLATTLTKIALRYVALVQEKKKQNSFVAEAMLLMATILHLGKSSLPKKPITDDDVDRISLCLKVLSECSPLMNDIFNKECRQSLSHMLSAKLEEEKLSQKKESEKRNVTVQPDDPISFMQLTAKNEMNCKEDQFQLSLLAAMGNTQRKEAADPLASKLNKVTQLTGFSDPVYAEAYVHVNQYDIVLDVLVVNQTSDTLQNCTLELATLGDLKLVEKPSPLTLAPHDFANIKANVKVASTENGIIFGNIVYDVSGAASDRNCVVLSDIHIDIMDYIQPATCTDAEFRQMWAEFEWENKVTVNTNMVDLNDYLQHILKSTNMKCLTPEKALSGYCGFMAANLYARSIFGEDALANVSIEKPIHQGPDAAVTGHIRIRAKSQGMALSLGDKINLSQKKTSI
UniProt P13073, whole entry, looked up: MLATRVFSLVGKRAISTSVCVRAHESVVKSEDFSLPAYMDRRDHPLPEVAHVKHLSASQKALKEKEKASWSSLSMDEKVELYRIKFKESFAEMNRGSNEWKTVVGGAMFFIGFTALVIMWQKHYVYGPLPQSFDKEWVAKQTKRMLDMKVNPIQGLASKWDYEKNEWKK
UniProt Q9Y6G5, whole entry, looked up: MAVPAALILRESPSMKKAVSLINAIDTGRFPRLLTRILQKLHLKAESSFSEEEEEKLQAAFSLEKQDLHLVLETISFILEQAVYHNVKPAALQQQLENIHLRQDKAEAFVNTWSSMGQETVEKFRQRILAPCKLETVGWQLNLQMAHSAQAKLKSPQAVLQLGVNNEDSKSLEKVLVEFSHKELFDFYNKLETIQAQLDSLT
UniProt P31327: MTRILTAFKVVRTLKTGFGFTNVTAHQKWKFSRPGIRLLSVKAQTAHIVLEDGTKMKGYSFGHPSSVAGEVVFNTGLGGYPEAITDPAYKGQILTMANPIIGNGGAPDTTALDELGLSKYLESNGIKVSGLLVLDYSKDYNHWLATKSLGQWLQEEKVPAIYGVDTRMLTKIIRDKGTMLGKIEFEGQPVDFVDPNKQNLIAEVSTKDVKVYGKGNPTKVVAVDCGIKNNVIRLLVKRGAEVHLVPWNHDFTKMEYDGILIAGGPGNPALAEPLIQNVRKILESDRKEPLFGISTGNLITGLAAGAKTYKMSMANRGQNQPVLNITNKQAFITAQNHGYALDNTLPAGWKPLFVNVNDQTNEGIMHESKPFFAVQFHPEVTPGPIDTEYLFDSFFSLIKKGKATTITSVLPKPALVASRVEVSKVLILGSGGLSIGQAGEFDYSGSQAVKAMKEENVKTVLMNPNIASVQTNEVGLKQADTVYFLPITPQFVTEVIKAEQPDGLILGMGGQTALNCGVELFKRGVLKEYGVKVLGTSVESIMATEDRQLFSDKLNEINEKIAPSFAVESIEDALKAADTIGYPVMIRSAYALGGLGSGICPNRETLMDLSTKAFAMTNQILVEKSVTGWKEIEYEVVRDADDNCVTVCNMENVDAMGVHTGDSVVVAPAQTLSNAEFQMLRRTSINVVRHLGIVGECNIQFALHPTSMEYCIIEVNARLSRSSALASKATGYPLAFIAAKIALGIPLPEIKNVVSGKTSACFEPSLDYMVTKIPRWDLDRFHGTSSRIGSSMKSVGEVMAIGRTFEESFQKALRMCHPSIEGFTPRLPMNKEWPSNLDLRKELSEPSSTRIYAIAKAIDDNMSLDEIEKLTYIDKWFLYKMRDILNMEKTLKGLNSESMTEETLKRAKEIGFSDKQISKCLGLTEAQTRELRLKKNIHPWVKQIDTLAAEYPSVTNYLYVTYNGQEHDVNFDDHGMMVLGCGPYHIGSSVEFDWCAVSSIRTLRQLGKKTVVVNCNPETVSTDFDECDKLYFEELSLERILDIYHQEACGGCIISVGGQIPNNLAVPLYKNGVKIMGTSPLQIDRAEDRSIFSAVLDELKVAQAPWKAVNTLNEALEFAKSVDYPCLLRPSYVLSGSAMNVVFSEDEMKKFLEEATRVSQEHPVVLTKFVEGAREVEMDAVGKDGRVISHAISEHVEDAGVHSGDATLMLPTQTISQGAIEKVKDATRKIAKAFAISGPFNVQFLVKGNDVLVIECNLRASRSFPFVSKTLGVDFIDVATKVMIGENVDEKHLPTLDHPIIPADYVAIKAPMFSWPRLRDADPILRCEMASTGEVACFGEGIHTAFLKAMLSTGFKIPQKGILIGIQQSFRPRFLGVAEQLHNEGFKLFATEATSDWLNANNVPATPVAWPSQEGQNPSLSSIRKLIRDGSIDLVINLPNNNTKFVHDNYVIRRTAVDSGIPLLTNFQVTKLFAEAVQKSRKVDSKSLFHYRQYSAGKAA
UniProt Q8N752: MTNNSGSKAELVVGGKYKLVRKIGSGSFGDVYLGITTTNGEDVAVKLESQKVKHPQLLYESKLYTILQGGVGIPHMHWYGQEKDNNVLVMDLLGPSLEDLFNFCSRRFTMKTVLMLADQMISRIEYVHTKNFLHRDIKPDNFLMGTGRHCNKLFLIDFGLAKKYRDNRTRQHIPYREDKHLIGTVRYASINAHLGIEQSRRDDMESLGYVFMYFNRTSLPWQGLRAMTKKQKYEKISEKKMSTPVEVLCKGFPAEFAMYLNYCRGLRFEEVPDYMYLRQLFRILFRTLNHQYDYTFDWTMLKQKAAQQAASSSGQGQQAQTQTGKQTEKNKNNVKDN
UniProt Q8NI60: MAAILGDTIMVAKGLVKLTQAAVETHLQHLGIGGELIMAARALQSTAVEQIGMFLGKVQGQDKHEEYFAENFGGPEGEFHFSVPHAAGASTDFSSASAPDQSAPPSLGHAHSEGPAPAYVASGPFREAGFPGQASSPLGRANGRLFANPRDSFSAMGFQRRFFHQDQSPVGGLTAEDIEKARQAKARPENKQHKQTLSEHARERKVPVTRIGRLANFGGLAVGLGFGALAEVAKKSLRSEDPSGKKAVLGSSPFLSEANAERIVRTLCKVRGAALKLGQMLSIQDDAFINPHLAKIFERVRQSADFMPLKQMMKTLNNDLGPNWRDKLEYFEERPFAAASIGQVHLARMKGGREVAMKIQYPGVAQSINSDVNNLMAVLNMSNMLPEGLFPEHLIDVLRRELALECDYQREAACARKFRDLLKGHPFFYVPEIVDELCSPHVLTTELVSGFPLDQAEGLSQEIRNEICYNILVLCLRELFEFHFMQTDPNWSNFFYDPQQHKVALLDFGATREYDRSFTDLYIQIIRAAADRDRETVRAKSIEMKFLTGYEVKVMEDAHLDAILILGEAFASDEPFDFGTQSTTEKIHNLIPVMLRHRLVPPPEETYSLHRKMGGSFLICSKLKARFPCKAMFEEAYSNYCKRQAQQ

How the values were obtained:
Test in all cases: log2 fold change, soluble protein after heating vs DMSO (PISA); higher = thermal stabilisation; K562 cells, 10 uM, 30 min; active = over 0.2 and 3.5 SD of the protein, either way, in both replicates (recomputed)
erlotinib = compound: C#Cc1cccc(Nc2ncnc3cc(OCCOC)c(OCCOC)cc23)c1 [erlotinib]
Procedure, shortened: (§1)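 Thermal stability values are relative to control samples and come from duplicates. They are expressed as log2 fold changes. For measurement, K562 cells (2×10^6 cells/mL) received 10 μM compound for 30 min, and aliquots were heated for 3 min over 48°C-58°C, pooled, and extracted at 4°C in PBS with 0.5% NP-40. Soluble protein, the supernatant after 21,000xg for 90 min, was quantified by TMTpro 16plex LC-MS/MS with equalised channel sums.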

[1] = compound: C/C(=N\NC(=O)C1=CC(=CC=C1)S(=O)(=O)N2CCOCC2)/C3=C(C=CC(=C3)Cl)O
Procedure, shortened: as §1

[2] = compound: C1=CC(=C(C=C1Cl)C2=NC3=NC=CN=C3C(=N2)NC4=CC=NC=C4)F
Procedure, shortened: as §1

[3] = compound: C1=CC(=CC=C1C2=NC3=C(N2)C=C(C=C3)C(=O)N)OC4=CC=C(C=C4)Cl
Procedure, shortened: as §1

[4] = compound: C1=CC2=C(C=CC(=C2)/C=C\3/C(=O)NC(=NCC4=CC=CS4)S3)N=C1
Procedure, shortened: as §1

[5] = compound: C1=CC2=NC=CN=C2C=C1/C=C/3\C(=O)NC(=O)S3
Procedure, shortened: as §1

[6] = compound: C1=CC=C(C=C1)C2=NC(=C(N2)C3=CC=NC=C3)C4=CC(=C(C=C4)Cl)O
Procedure, shortened: as §1

[7] = compound: C1=CC=C2C(=C1)C3=NNC4=CC=CC(=C43)C2=O
Procedure, shortened: as §1

[8] = compound: C1CCN(C1)C(=O)NC2=CC=CC(=C2)NC3=NC=C(C(=N3)NCCC4=CN=CN4)Br
Procedure, shortened: as §1

[9] = compound: C1CN(CCC1(CC2=CC=C(C=C2)Cl)N)C3=NC=NC4=C3C=CN4
Procedure, shortened: as §1

IRAK-1-4 Inhibitor I = compound: C1COCCN1CCN2C3=CC=CC=C3N=C2NC(=O)C4=CC(=CC=C4)[N+](=O)[O-] [IRAK-1-4 Inhibitor I]
Procedure, shortened: as §1

ibrutinib = compound: C=CC(=O)N1CCC[C@@H](n2nc(-c3ccc(Oc4ccccc4)cc3)c3c(N)ncnc32)C1 [ibrutinib]
Procedure, shortened: as §1

[10] = compound: CC(=O)c1cnc2ccc(-c3cc(Cl)c(O)c(Cl)c3)nc2c1N[C@H]1CC[C@H](CN(C)C)CC1
Procedure, shortened: as §1

ralimetinib = compound: CC(C)(C)Cn1c(N)nc2ccc(-c3[nH]c(C(C)(C)C)nc3-c3ccc(F)cc3)nc21 [ralimetinib]
Procedure, shortened: as §1

[11] = compound: CC(C)(O)CC(=O)NCCn1ccc2ncnc(Nc3ccc(Oc4cccc(C(F)(F)F)c4)c(Cl)c3)c21
Procedure, shortened: as §1

[12] = compound: CC(C)C1=C2N=C(C=C(N2N=C1)NCC3=CC=CC=C3)NCCCCCCN
Procedure, shortened: as §1

[13] = compound: CC(C)C[C@@H](C=O)NC(=O)[C@H](CC(C)C)NC(=O)[C@H](CC(C)C)NC(=O)OCc1ccccc1
Procedure, shortened: as §1

pinometostat = compound: CC(C)N(C[C@H]1O[C@@H](n2cnc3c(N)ncnc32)[C@H](O)[C@@H]1O)[C@H]1C[C@@H](CCc2nc3cc(C(C)(C)C)ccc3[nH]2)C1 [pinometostat]
Procedure, shortened: as §1

[14] = compound: CC1=C(C(CC(=O)N1)C2=CC=C(C=C2)C(F)(F)F)C(=O)NC3=C(C=C4C(=C3)C=NN4)F
Procedure, shortened: as §1

[15] = compound: CC1=C(C2=C(C=C1)C(=O)C3=CC=CC=C3N2CCCN)C
Procedure, shortened: as §1

Measured: log2 fold change

CRIPT (UniProt Q9P021)
inactive: erlotinib -0.003 | [1] 0.007 | [2] -0.028 | [3] 0.038 | [4] 0.007 | [5] 0.02 | [6] -0.065 | [7] -0.069 | [8] -0.026 | [9] -0.029 | IRAK-1-4 Inhibitor I -0.039 | ibrutinib 0.067 | [10] 0.069 | ralimetinib -0.084 | [11] -0.092 | [12] 0.066 | [13] 0.078 | pinometostat 0.012 | [14] -0.013 | [15] -0.01

COMMD8 (UniProt Q9NX08)
inactive: erlotinib -0.059 | [1] 0.018 | [2] 0.007 | [3] 0.091 | [4] 0.12 | [5] 0.144 | [6] 0.089 | [7] -0.007 | [8] -0.106 | [9] -0.198 | IRAK-1-4 Inhibitor I -0.033 | ibrutinib 0.063 | [10] -0.063 | ralimetinib 0.103 | [11] -0.149 | [12] -0.16 | [13] 0.023 | pinometostat -0.054 | [14] 0.029 | [15] 0.293

COPB1 (UniProt P53618)
inactive: erlotinib -0.043 | [1] 0.041 | [2] 0.052 | [3] 0.019 | [4] -0.012 | [5] 0.039 | [6] 0.025 | [7] 0.018 | [8] -0.011 | [9] 0.03 | IRAK-1-4 Inhibitor I -0.018 | ibrutinib -0.027 | [10] 0.005 | ralimetinib -0.012 | [11] -0.028 | [12] 0.067 | [13] -0.014 | pinometostat -0.009 | [14] -0.011 | [15] 0

COX4I1 (UniProt P13073)
inactive: erlotinib -0.051 | [1] -0.02 | [2] 0.007 | [3] 0.029 | [4] -0.026 | [5] 0.02 | [6] 0.004 | [7] 0.011 | [8] 0.016 | [9] 0.043 | IRAK-1-4 Inhibitor I 0.024 | ibrutinib 0.017 | [10] -0.008 | ralimetinib -0.021 | [11] 0.028 | [12] 0.037 | [13] 0.014 | pinometostat -0.012 | [14] 0.017 | [15] 0.002

COMMD10 (UniProt Q9Y6G5)
inactive: erlotinib 0 | [1] 0.093 | [2] 0.026 | [3] 0.034 | [4] 0.064 | [5] 0.011 | [6] -0.02 | [7] -0.014 | [8] -0.079 | [9] -0.048 | IRAK-1-4 Inhibitor I 0.031 | ibrutinib 0.07 | [10] 0.003 | ralimetinib 0.008 | [11] 0.082 | [12] -0.039 | [13] 0.009 | pinometostat -0.02 | [14] -0.03 | [15] 0.054

CPS1 isoform 3 (UniProt P31327)
inactive: erlotinib -0.002 | [1] 0.283 | [2] -0.021 | [3] 0.072 | [4] -0.049 | [5] -0.137 | [6] 0.02 | [7] -0.213 | [8] -0.072 | [9] 0.036 | IRAK-1-4 Inhibitor I -0.045 | ibrutinib 0.095 | [10] 0.021 | ralimetinib 0.099 | [11] 0.094 | [12] 0.069 | [13] -0.017 | pinometostat -0.076 | [14] -0.207 | [15] -0.15

CSNK1A1L (UniProt Q8N752)
inactive: erlotinib -0.078 | [1] -0.013 | [2] -0.062 | [3] 0.093 | [4] -0.026 | [5] 0.05 | [6] -0.024 | [7] -0.062 | [8] -0.045 | [9] -0.057 | IRAK-1-4 Inhibitor I 0.003 | ibrutinib -0.025 | [10] -0.042 | ralimetinib 0.016 | [11] 0.058 | [12] -0.188 | [13] 0.103 | pinometostat 0.101 | [14] 0.068 | [15] 0.048

COQ8A (UniProt Q8NI60)
inactive: erlotinib -0.056 | [1] 0.048 | [2] -0.009 | [3] 0.048 | [4] -0.048 | [5] 0.066 | [6] -0.006 | [7] 0.021 | [8] -0.041 | [9] -0.037 | IRAK-1-4 Inhibitor I 0.091 | ibrutinib 0.096 | [10] 0.116 | ralimetinib -0.019 | [11] -0.018 | [12] -0.016 | [13] -0.009 | pinometostat 0.021 | [14] -0.002 | [15] 0.022
